Results are given in words; binding and its absence hold for the method and conditions named. Binding seen in cells or lysates may run through a third protein. A yes stands for co-enrichment or nearness to the bait. Other partners may have been found.

The chains behind the UniProt entries cited, without tags or fusion partners.
UniProt Q06710: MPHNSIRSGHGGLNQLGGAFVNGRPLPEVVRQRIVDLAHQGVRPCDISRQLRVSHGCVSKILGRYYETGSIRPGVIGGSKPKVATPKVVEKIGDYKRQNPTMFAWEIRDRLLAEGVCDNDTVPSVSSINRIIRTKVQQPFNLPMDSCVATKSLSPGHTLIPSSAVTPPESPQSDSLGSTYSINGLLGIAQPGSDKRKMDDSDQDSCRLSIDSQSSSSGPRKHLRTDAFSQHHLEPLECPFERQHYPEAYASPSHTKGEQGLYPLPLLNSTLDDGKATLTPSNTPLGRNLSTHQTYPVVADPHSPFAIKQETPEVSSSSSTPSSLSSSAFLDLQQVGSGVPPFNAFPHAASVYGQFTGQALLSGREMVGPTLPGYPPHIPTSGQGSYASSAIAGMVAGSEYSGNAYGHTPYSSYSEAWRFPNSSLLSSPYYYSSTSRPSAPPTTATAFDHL
UniProt Q8WXI9: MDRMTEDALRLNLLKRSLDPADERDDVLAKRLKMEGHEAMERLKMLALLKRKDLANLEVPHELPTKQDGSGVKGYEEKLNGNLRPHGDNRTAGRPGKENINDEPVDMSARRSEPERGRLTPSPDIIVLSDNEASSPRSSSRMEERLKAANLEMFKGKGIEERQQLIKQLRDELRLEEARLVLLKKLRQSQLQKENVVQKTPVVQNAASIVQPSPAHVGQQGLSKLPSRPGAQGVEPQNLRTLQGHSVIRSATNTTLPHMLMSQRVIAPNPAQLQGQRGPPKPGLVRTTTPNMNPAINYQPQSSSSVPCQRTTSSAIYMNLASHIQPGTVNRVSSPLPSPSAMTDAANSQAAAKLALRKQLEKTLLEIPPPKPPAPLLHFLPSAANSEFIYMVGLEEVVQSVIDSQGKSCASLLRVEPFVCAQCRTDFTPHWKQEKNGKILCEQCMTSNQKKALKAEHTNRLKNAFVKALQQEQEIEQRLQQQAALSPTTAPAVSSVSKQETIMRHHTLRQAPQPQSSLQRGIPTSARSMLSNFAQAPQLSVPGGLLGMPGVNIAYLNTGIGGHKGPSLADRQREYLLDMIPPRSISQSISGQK
UniProt Q9H6I2: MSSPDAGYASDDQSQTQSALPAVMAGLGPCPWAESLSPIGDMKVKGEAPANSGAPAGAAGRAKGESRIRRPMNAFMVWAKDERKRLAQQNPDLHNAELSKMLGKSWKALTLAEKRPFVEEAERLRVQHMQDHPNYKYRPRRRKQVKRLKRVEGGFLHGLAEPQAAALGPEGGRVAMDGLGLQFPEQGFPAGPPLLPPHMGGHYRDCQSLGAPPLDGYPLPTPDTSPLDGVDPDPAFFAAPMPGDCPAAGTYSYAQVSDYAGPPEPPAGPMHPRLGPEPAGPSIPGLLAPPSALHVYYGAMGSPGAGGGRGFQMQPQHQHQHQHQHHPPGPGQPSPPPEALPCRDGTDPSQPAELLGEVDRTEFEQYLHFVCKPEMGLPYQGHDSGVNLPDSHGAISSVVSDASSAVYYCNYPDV
UniProt Q14839: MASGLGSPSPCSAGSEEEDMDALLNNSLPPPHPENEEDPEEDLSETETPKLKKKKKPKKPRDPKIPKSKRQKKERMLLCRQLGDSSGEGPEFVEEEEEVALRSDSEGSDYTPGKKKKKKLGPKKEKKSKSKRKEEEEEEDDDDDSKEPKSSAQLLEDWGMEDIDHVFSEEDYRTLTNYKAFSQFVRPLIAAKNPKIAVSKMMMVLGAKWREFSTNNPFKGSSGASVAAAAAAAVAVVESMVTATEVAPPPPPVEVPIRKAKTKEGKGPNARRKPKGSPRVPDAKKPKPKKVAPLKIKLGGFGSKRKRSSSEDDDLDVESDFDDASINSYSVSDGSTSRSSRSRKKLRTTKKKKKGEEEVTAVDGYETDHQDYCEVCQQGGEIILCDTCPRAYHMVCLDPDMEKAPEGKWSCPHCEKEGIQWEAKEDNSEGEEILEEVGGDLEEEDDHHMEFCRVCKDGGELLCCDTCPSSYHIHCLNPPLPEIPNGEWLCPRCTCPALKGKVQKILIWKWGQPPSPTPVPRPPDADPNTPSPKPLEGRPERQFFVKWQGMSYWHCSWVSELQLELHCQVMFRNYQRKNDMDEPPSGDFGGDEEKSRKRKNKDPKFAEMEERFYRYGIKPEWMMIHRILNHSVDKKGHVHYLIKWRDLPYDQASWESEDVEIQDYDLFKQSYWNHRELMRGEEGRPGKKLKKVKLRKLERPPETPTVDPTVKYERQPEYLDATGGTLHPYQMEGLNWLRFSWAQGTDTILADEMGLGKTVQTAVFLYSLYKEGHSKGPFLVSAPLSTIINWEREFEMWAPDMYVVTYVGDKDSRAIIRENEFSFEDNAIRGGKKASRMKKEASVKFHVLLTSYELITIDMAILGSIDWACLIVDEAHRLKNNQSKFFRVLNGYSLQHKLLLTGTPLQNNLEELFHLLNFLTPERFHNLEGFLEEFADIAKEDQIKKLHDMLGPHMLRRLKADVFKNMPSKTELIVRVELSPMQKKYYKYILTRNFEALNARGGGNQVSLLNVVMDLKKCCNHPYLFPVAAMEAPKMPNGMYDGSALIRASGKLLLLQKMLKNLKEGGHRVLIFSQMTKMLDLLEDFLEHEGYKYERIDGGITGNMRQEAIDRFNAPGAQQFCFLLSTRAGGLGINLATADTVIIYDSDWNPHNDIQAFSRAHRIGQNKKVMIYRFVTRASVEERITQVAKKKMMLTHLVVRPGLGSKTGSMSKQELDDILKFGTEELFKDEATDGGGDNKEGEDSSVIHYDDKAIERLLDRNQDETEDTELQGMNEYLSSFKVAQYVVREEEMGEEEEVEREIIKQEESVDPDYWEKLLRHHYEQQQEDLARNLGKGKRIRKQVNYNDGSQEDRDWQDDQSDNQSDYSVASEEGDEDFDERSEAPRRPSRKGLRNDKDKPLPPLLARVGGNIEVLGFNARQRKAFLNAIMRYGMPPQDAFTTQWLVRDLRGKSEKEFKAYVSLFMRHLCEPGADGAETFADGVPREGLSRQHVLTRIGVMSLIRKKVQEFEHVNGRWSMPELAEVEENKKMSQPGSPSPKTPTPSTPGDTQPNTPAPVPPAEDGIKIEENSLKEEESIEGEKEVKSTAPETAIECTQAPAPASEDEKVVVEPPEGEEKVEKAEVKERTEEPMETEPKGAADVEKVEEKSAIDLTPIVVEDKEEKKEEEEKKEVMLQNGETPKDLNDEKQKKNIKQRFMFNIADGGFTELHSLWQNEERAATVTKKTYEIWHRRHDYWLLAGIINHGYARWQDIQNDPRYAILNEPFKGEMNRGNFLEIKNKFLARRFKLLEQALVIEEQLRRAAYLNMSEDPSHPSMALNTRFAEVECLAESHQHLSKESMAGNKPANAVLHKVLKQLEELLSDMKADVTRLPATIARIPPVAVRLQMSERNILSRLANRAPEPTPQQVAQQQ
UniProt Q13547: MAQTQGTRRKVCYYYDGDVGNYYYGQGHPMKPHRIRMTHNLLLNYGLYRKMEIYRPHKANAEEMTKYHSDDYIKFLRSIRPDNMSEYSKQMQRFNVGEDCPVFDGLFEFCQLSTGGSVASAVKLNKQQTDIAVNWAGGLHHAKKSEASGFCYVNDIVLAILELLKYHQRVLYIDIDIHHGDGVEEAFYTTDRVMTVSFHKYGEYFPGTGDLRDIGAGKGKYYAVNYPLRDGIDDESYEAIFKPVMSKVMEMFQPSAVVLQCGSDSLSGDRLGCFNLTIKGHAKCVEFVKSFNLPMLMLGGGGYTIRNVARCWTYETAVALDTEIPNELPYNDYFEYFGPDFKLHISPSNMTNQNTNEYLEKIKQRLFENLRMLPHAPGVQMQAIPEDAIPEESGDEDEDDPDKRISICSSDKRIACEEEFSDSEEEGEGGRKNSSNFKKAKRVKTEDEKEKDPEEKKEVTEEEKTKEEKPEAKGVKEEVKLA

In this test the target is PAX8 (human (endogenous in FT194, FT246, FT282, OVCAR4, KURAMOCHI, OVSAHO and human tissues)) (UniProt Q06710). In words: affinity purification with mass spectrometry.
Regarding GATAD2B (from UniProt Q8WXI9 1-593), the binding result is recorded as “binds”.

As to SOX17 (from UniProt Q9H6I2 1-414), the binding entry was “binds”.

As to “chromodomain-helicase-DNA-binding protein 4 (from UniProt Q14839 1-1912)”, the binding result was “binds”.

Turning to “histone deacetylases 1 (from UniProt Q13547 1-482)”, the binding result is on record as “binds”.

Source of the values: article doi:10.1101/2020.09.09.290387.
